Experimental data reported in the supplement of paper PMC6078165.
The reference is the same well before dosing, and untreated signal decays as well.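 Labels refer to human fibroblasts, largely primary: uterine (C12385, HUF), lung (H6013), bone (Hs27A), adrenal (HADF), skin (WS1), plus mammary HMF and breast cancer-associated Hs343T. Cancer lines are basal-like or mesenchymal-like triple-negative breast cancer. The paper counts as hits responses shifting over 3x the replicate standard deviation. The tissue of the other fibroblasts is not given here.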

Tested on: MDAMB231
Assay: relative JC-1 red fluorescence (viability) vs pre-drug, coculture with fibroblast (fraction); higher = more viable cancer cells
Description: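 JC-1 labelled TNBC cells cocultured 1:1 (1,500 cells each) with CellTrace Violet stained primary or stromal fibroblasts in 384-well plates in FluoroBrite medium, treated with one of 42 anticancer drugs at 0.1, 1, 10 or 100 uM. JC-1 red fluorescence (mitochondrial integrity in cancer cells only) was read by plate reader every 8 h for 72 h. Values are normalised to each well's pre-drug value. The stock of one drug was tenfold lower, so its dose labels may be too high.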

CO[C@H]1C[C@@H]2CC[C@@H](C)[C@@](O)(O2)C(=O)C(=O)N2CCCC[C@H]2C(=O)O[C@H]([C@H](C)C[C@@H]2CC[C@@H](OCCO)[C@H](OC)C2)CC(=O)[C@H](C)/C=C(\C)[C@@H](O)[C@@H](OC)C(=O)[C@H](C)C[C@H](C)/C=C/C=C/C=C/1C [Everolimus]
relative JC-1 red fluorescence
Conditions	8 h	16 h	24 h	32 h	40 h	48 h	56 h	64 h	72 h
10 µM, coculture fibroblast: C12385	0.782	0.849	0.7082	0.838	0.829	0.81	0.781	0.778	0.75
10 µM, coculture fibroblast: H6013	0.9699	0.98	0.952	0.9714	0.9578	0.9121	0.9429	0.917	0.888
10 µM, coculture fibroblast: H6019	0.838	0.864	0.744	0.847	0.837	0.829	0.7981	0.781	0.758
10 µM, coculture fibroblast: H6076	0.857	0.84	0.929	0.871	0.954	0.923	0.908	0.9856	0.9828
10 µM, coculture fibroblast: H6231	0.868	0.829	0.867	0.825	0.954	0.935	0.916	0.9242	0.95
10 µM, coculture fibroblast: HADF	0.958	0.919	0.965	0.854	0.96	0.911	0.929	0.918	0.879
10 µM, coculture fibroblast: HCFa	0.967	0.97	0.9683	0.966	0.938	0.892	0.902	0.8812	0.8615
10 µM, coculture fibroblast: HCPF	0.956	0.859	0.905	0.921	0.931	0.947	0.93	0.904	0.879
10 µM, coculture fibroblast: HHSteC	0.968	0.982	0.951	0.931	0.905	0.866	0.862	0.849	0.817
10 µM, coculture fibroblast: HMF	0.912	0.894	0.906	0.846	0.913	0.943	0.92	0.901	0.884
10 µM, coculture fibroblast: HPFa	0.91	0.86364	0.867	0.936	0.943	0.878	0.954	0.851	0.919
10 µM, coculture fibroblast: HUF	0.872	0.877	0.914	0.866	0.84	0.825	0.801	0.798	0.781
10 µM, coculture fibroblast: Hs5	0.842	0.876	0.866	0.76	0.963	0.964	0.929	0.9	0.886
10 µM, coculture fibroblast: Hs27A	0.938	0.927	0.914	0.927	0.8983	0.795	0.86	0.8557	0.8188
10 µM, coculture fibroblast: Hs343T	0.945	0.844	0.728	0.881	0.901	0.885	0.834	0.893	0.958
10 µM, coculture fibroblast: WS1	0.831	0.805	0.802	0.861	0.782	0.7785	0.852	0.833	0.802
100 µM, coculture fibroblast: C12385	0.69	0.765	0.515	0.4942	0.246	0.195	0.188	0.219	0.231
100 µM, coculture fibroblast: H6013	0.789	0.801	0.878	0.875	0.68	0.523	0.47	0.449	0.446
100 µM, coculture fibroblast: H6019	0.805	0.787	0.606	0.463	0.342	0.288	0.277	0.32	0.326
100 µM, coculture fibroblast: H6076	0.855	0.812	0.523	0.468	0.426	0.424	0.458	0.485	0.518
100 µM, coculture fibroblast: H6231	0.955	0.921	0.896	0.877	0.853	0.824	0.792	0.781	0.763
100 µM, coculture fibroblast: HADF	0.93315	0.901	0.78	0.585	0.429	0.345	0.305	0.289	0.284
100 µM, coculture fibroblast: HCFa	0.963	0.897	0.864	0.752	0.607	0.444	0.386	0.317	0.306
100 µM, coculture fibroblast: HCPF	0.847	0.737	0.61	0.578	0.556	0.542	0.538	0.534	0.544
100 µM, coculture fibroblast: HHSteC	0.871	0.768	0.811	0.699	0.531	0.426	0.37	0.3793	0.388
100 µM, coculture fibroblast: HMF	0.923	0.841	0.605	0.463	0.422	0.41	0.422	0.441	0.455
100 µM, coculture fibroblast: HPFa	0.8015	0.833	0.856	0.686	0.551	0.457	0.3731	0.355	0.359
100 µM, coculture fibroblast: HUF	0.833	0.814	0.784	0.594	0.501	0.504	0.503	0.551	0.56
100 µM, coculture fibroblast: Hs5	0.8721	0.802	0.587	0.53	0.532	0.53969	0.575	0.589	0.593
100 µM, coculture fibroblast: Hs27A	0.9326	0.908	0.823	0.804	0.722	0.575	0.537	0.454	0.377
100 µM, coculture fibroblast: Hs343T	0.883	0.8177	0.512	0.445	0.409	0.399	0.415	0.433	0.4439
100 µM, coculture fibroblast: WS1	0.6881	0.667	0.439	0.34	0.237	0.2	0.206	0.247	0.259
